In patent publication US7417156B2, “Orally active, antimalarial, anticancer, artemisinin-derived trioxane dimers” (Johns Hopkins University, priority 2002, dated 2008):
Some of these results come from one statement about several compounds together.

Test system: MOLT-4
Details: for concentration for cytostasis (percentage growth 0): MOLT-4
Method: Growth Inhibition. […] The screening assay is performed on 96-well microtitre plates. Relatively high initial inoculation densities are used, in order to permit measurement of “time-zero” values and to enhance the screen's ability to detect and provide some differentiation between growth inhibition and cytotoxic response parameters. […] The inoculated microtitre plates are pre-incubated for 24 hours at 37° C. prior to drug additions. The five drug dilutions tested routinely range from 10^−4 to 10^−8 molar. Higher or lower concentration ranges may be selected on a non-routine basis if appropriate solubility and/or prior biological information or other screening data so dictate. Duplicate wells are prepared for all concentrations, (concentration is often denoted by placing brackets around a number); “time-zero” and “no drug” controls are also provided for each test. The minimum amount of compound required for a one-time evaluation in the routine screen can be calculated from the knowledge that each test requires a total of approximately 40 ml (0.04 liter) of cell culture medium containing the highest desired drug concentration. […] After a 48 hour incubation (37° C.) with the test compound, the cells are fixed in situ to the bottoms of the microtitre wells by addition of 50 μl of either 50% trichloroacetic acid (for adherent cell lines) or 80% trichloroacetic acid (for settled cell suspension lines), followed by incubation for 60 minutes at 4° C. The cellular protein in each well is assayed using a sulforhodamine B (SRB) stain procedure. Briefly, after discarding the supernatants, the microtitre plates are washed 5 times with deionized water and air-dried. […] Unbound SRB is removed by washing 5 times with 1% acetic acid. […] SRB is a bright pink anionic dye which, in dilute acetic acid, binds electrostatically to the basic amino acids of TCA-fixed cells. Cryopreserved master stocks of all the lines are maintained, and cultures used for screening are replaced from the master stock after no more than twenty passages in the screening laboratory. The cell line panel consists of 60 lines, organized into nine, disease-related subpanels including leukemia, non-small-cell lung cancer, colon, CNS, melanoma, ovarian, renal, prostate and breast cancers. […]
Dose response curves, shown in the above mentioned Figures, are obtained by exposing various cancer cell lines to compounds having a known concentration ([log10M]), as discussed in detail above, and then plotting the percentage growth of each cell line for each concentration. […] Percentage growth is determined by dividing the number or mass of cells in the test well by the number or mass of cells in a control well. […]

CC(=O)O[C@H]1C(=O)[C@@]2(C)[C@H]([C@H](OC(=O)c3ccccc3)[C@]3(O)C[C@H](OC(=O)[C@H](O)[C@@H](NC(=O)c4ccccc4)c4ccccc4)C(C)=C1C3(C)C)[C@]1(OC(C)=O)CO[C@@H]1C[C@@H]2O [Paclitaxel, paclitaxel, reference compound]
concentration for cytostasis (percentage growth 0): greater than 10^−4 M

C[C@@H]1CC[C@H]2[C@@H](C)C(CC(O)(COC(=O)CCC(=O)O)CC3OC4O[C@]5(C)CC[C@H]6[C@H](C)CC[C@@H]([C@H]3C)C46OO5)OC3O[C@]4(C)CCC1C32OO4 (stereo partly shown) [Compound 9, tertiary alcohol primary succinate ester]
concentration for cytostasis (percentage growth 0): greater than 10^−4 M

C[C@@H]1CC[C@H]2[C@@H](C)C(=O)O[C@@H]3O[C@]4(C)CC[C@@H]1[C@]32OO4 [Artemisinin]
concentration for cytostasis (percentage growth 0): greater than 10^−4 M | drug concentration for primary growth inhibition (percentage growth +50) (MOLT-4, from dose response curves FIGS. 7a-7i): greater than 10^−4 molar
